The exact form of at least one protein or probe is not confirmed.
Biological target: His6-GanR (Bacillus subtilis 3610) (UniProt O07008)
Assay: EMSA
Conditions: 10 mM Tris-HCl (pH not stated), 50 mM NaCl, 1 mM EDTA, 5% glycerol, 1 mM DTT, 10 ug/ml BSA, on ice 20 min, Cy3 probes with poly-dIdC, gel 0.5X TBE at 4 C, recombinant protein, protein details: His6, probe letters rebuilt from the primers and the genome

Protein sequences, listed by entry. Tags and fused reporters are not part of them. Lines headed by an entry give the natural chain unless they say otherwise; changes in a name come on top.
UniProt O07008: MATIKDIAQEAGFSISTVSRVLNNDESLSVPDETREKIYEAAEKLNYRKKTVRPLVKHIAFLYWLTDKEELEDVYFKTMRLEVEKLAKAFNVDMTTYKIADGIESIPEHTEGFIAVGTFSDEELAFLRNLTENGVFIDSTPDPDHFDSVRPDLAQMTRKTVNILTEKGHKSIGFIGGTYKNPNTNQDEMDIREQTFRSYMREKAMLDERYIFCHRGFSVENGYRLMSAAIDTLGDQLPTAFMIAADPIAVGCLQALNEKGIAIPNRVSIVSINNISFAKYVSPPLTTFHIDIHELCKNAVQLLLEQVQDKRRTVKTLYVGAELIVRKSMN

| Sequence | binding result (one shifted band (1-30 uM protein, ~0.3 uM DNA)) | binding result (two shifted bands at highest GanR (1-30 uM protein, ~0.3 uM DNA)) |
| --- | --- | --- |
| GTACGAATTCCGAACGGATTTACAATGCTGTGGCTGCCGGGAACGGTGCACAGGCGGAAGCCGCCATGCTGGCGCATTTGACGAATGTGGAAGATGTGCTTTCGGGATATTTCGAGGAAAATGTGCAATAACCAACTCATTTCCCGGGCAATTCCGCCGGTTCCGAATGATACGAACAACTGAGACTGAGCCGCAAATGGTTCAGTCTTTTTACATGGCAGCCAGAGGGCTTTGTGCACTTGACATTTGTGAAAAAGAAAGTAAAATATTTTACTAAAACAATGCGAGCTGAATAATGGATCCGCGGCCGCGTAC (double strand) [PganR (ganR promoter)] | binds | – |
| GTACGAATTCCGGACCCGATTGCAGTGGGCTGTCTGCAAGCCCTGAACGAAAAAGGAATTGCCATACCAAACAGGGTAAGCATTGTGAGTATCAACAACATCAGCTTCGCGAAGTATGTCTCGCCTCCTCTGACGACGTTTCATATTGATATACATGAATTATGTAAAAACGCTGTTCAATTACTGCTTGAACAAGTGCAGGACAAGAGAAGAACGGTAAAAACATTATATGTGGGCGCAGAATTAATCGTCAGGAAGAGTATGAATTAAGGATGACTTAGGACACTAAGTCATTTTTTATTTAGGTAAAAAAATTTACTCTATGAAGTAAATAGTTTGTTTACACATTTTCTCAGGCATGCTATATTATCTTTAAAGCGCTTTCATTCCTACCGAAGGATCCGTAC (double strand) [PganS (ganS promoter)] | – | binds |

Reference: PMC5472308, “Characterization of the regulation of a plant polysaccharide utilization operon and its role in biofilm formation in Bacillus subtilis” (PLoS ONE, 2017)
